Source: PubChem BioAssay AID504791 (Drosophila RNAi Screening Center, 2011)

- Assay: 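Genes of the fly required for silencing by miRNA, siRNA or endo-siRNA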 (primary screen)
- System: Drosophila S2-derived reporter cells
- Reagents: long dsRNA against Drosophila genes, about 150-250 ng dsRNA per well (siRNA assay); about 80-120 ng (miRNA assay)
- Duration: about 5 days (siRNA assay); about 4 days (miRNA assay)
- Conditions: copper sulfate induction of reporters: 25 µM (siRNA assay); 200 mM stated (miRNA assay), 1-2 days before reading
- Read-out: 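Dual luciferase assay: Renilla to firefly signal ratio in each well, scaled to the mean ratio of its plate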
- Rule for the call: 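First-pass picks had plate-scaled ratios over 1.5 for the siRNA assay, over 1.6 for the miRNA assay, or under 0.6; two distinct dsRNAs had to score alike on retest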
In all, the deposit lists about 23,000 reagents; this is a random part of those with a known target gene and a result. Over the whole deposit, 199 (0.86%) got an active call. 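Plate-scaled ratios behind the calls are not deposited; printed light signals are raw; many rows marked increased or decreased are still called inactive.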 Reagents against one gene are numbered here. Names joined by + are all predicted targets of the reagent. The record does not give: the direction of the score.

gene | dsRNA no. | stable siRNA reporter change | miRNA reporter change | stable assay Renilla, run 1 (luminescence) | stable assay firefly, run 1 (luminescence) | call
CG3847 | 1 | – | – | 5262 | 3.90e5 | inactive
CG3847 | 2 | – | – | 5495 | 4.47e5 | inactive
Mos | 1 | – | – | 6631 | 2.88e5 | inactive
ste24c + CG30461 | 1 | – | – | 7376 | 5.19e5 | inactive
ste24c + CG30461 | 2 | – | – | 6130 | 3.33e5 | inactive
CG33502 + CG32857 + CG32500 | 1 | – | – | 5560 | 4.75e5 | inactive
CG33502 + CG32857 + CG32500 | 2 | – | – | 6274 | 4.48e5 | inactive
CG13423 | 1 | – | – | 7006 | 3.49e5 | inactive
CG15366 (retired record) | 1 | – | – | 6207 | 5.26e5 | inactive
flfl | 1 | reporter ratio lowered past the hit cutoff | reporter ratio lowered past the hit cutoff | 5639 | 5.28e5 | active
CG31038 | 1 | – | – | 6946 | 4.55e5 | inactive
CG31038 | 2 | – | – | 6826 | 4.05e5 | inactive
CG31038 | 3 | – | – | 7243 | 3.98e5 | inactive
crq | 1 | – | – | 8491 | 6.07e5 | inactive
RluA-2 | 1 | – | – | 21078 | 1.30e6 | inactive
Impbeta11 | 1 | – | – | 7144 | 4.66e5 | inactive
Syx13 | 1 | – | – | 5790 | 3.02e5 | inactive
crp | 1 | – | – | 7211 | 3.67e5 | inactive
Nlg4 | 1 | – | – | 6659 | 3.40e5 | inactive
Nlg4 | 2 | – | – | 6395 | 3.71e5 | inactive
Nlg4 | 3 | – | – | 6878 | 3.59e5 | inactive
Nlg4 | 4 | – | – | 5559 | 2.00e5 | inactive
Nlg4 | 5 | – | – | 12280 | 5.59e5 | inactive
CR18217 | 1 | – | – | 10709 | 5.87e5 | inactive
CG8483 | 1 | – | – | 8293 | 4.25e5 | inactive
RhoGEF3 (retired record) | 1 | – | – | 5434 | 5.28e5 | inactive
RhoGEF3 (retired record) | 2 | – | – | 7006 | 4.00e5 | inactive
CG8060 | 1 | – | – | 9147 | 4.27e5 | inactive
Nmt | 1 | – | – | 7195 | 4.55e5 | inactive
CG14864 | 1 | – | – | 7830 | 5.70e5 | inactive
CG11248 | 1 | – | – | 8598 | 3.45e5 | inactive
Glut1 | 1 | – | – | 6562 | 5.09e5 | inactive
Glut1 | 2 | – | – | 9137 | 3.63e5 | inactive
CG31407 | 1 | – | – | 6136 | 4.35e5 | inactive

Active calls, of those listed so far:
gene | dsRNA no. | stable siRNA reporter change | miRNA reporter change | stable assay Renilla, run 1 (luminescence) | stable assay firefly, run 1 (luminescence) | call
flfl | 1 | reporter ratio lowered past the hit cutoff | reporter ratio lowered past the hit cutoff | 5639 | 5.28e5 | active
